Results deposited as PubChem BioAssay AID1224830 (NIAID, 2016).
Shown is one part, drawn at random, of about 18,000 reagents tested. Over the whole deposit, about 2,900 (16%) got an active call. 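Calls are made per well; low scores hint the gene aids the LPS response, high scores that it dampens it.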 A number with no mark means an inactive call. Repeated entries: four replicate wells of each siRNA pool.

Purpose: 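Regulators of TLR4 signalling towards TNF-alpha in macrophage-like cells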 (primary screen)
Cells: human THP-1 monocytic leukaemia cells, TNF dual-luciferase reporter clone, PMA-differentiated to macrophage-like cells
Reagent: siRNA pool against human genes, 50 nM
Timing: LPS for 4 h, given about 3 days after siRNA transfection
Conditions: bacterial LPS (TLR4 ligand), 10 ng/ml
Measurement: 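TNF firefly reporter luminescence divided by renilla, normalised to the plate median, then turned into a robust z-score for each replicate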
Direction: TNF reporter robust z-score: higher = stronger TNF reporter response to LPS
Hit rule: 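Each well counts as active if its z-score is over 2.8 or under -1.5; controls are left without a call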

| target gene | PubChem SID | TNF reporter robust z-score |
| --- | --- | --- |
| DRC1 | SID315461033 | 3.82 (active) |
| DRC1 | SID315461033 | 2.62 |
| DRC1 | SID315461033 | 3.02 (active) |
| DRC1 | SID315461033 | 2.71 |
| CAPN7 | SID315455265 | -0.1 |
| CAPN7 | SID315455265 | 0.11 |
| CAPN7 | SID315455265 | 0.18 |
| CAPN7 | SID315455265 | 0.02 |
| BTG2 | SID315452318 | -1.54 (active) |
| BTG2 | SID315452318 | -0.92 |
| BTG2 | SID315452318 | -0.18 |
| BTG2 | SID315452318 | 0.32 |
| PROSER2 | SID315463457 | -1.05 |
| PROSER2 | SID315463457 | -0.51 |
| PROSER2 | SID315463457 | -1.14 |
| C11orf65 | SID315462695 | -1.32 |
| C11orf65 | SID315462695 | -0.98 |
| C11orf65 | SID315462695 | -0.82 |
| C11orf65 | SID315462695 | 0.23 |
| EPX | SID315452455 | 0.19 |
| EPX | SID315452455 | 0.53 |
| EPX | SID315452455 | 0.16 |
| EPX | SID315452455 | 1.35 |
| COPZ1 | SID315454792 | -0.05 |
| COPZ1 | SID315454792 | 0.15 |
| COPZ1 | SID315454792 | -0.63 |
| COPZ1 | SID315454792 | 0.65 |
| RIPK1 | SID315452785 | -0.63 |
| RIPK1 | SID315452785 | -1.05 |
| RIPK1 | SID315452785 | -0.74 |
| RIPK1 | SID315452785 | -0.86 |
| ELOVL7 | SID315459611 | 0.21 |
| ELOVL7 | SID315459611 | -0.95 |
| ELOVL7 | SID315459611 | 0.58 |
| ELOVL7 | SID315459611 | 3.61 (active) |
| GDI1 | SID315448874 | -0.24 |
| GDI1 | SID315448874 | -0.15 |
| GDI1 | SID315448874 | 0.27 |
| GDI1 | SID315448874 | 0.76 |
| SEC23B | SID315454128 | -0.89 |
| SEC23B | SID315454128 | -1.15 |
| SEC23B | SID315454128 | -1.02 |
| SYNCRIP | SID315454137 | -0.6 |
| SYNCRIP | SID315454137 | -1.52 (active) |
| SYNCRIP | SID315454137 | -0.82 |
| SYNCRIP | SID315454137 | -0.45 |
| SFTPB | SID315451395 | 0.21 |
| SFTPB | SID315451395 | -0.31 |
| SFTPB | SID315451395 | 0.79 |
| SFTPB | SID315451395 | 0.6 |
| USHBP1 | SID315460110 | 0.83 |
| USHBP1 | SID315460110 | 1.2 |
| USHBP1 | SID315460110 | 0.9 |
| USHBP1 | SID315460110 | -0.4 |
| CDH9 | SID315447834 | 0.05 |
| CDH9 | SID315447834 | 2.11 |
| CDH9 | SID315447834 | 3.78 (active) |
| CDH9 | SID315447834 | 1.8 |
| ADAM21 | SID315452794 | 0.02 |
| ADAM21 | SID315452794 | 0.77 |
| ADAM21 | SID315452794 | -0.88 |
| ADAM21 | SID315452794 | -0.44 |
| OTUD5 | SID315457699 | -1.45 |
| OTUD5 | SID315457699 | -0.63 |
| OTUD5 | SID315457699 | -0.82 |
| OTUD5 | SID315457699 | -1.38 |
| TMEM179B | SID315464316 | 0.19 |
| TMEM179B | SID315464316 | -0.56 |
| TMEM179B | SID315464316 | -0.11 |
| TMEM179B | SID315464316 | -0.57 |
| VPS26C | SID315453995 | -0.15 |
| VPS26C | SID315453995 | 0.25 |
| VPS26C | SID315453995 | -1.13 |
| VPS26C | SID315453995 | -0.79 |
| HOXD9 | SID315449298 | -0.67 |
| HOXD9 | SID315449298 | -0.32 |
| HOXD9 | SID315449298 | -1.1 |
| HOXD9 | SID315449298 | 0.2 |

Not a retest: entries from further up.
| target gene | PubChem SID | TNF reporter robust z-score |
| --- | --- | --- |
| SYNCRIP | SID315454137 | -0.82 |
| SYNCRIP | SID315454137 | -0.45 |
| SFTPB | SID315451395 | 0.21 |
| SFTPB | SID315451395 | -0.31 |
| SFTPB | SID315451395 | 0.79 |
| SFTPB | SID315451395 | 0.6 |
| USHBP1 | SID315460110 | 0.83 |
| USHBP1 | SID315460110 | 1.2 |
| USHBP1 | SID315460110 | 0.9 |
| USHBP1 | SID315460110 | -0.4 |
